Reference: patent US20250084409A1, “COMPOSITIONS AND METHODS FOR CAPPING RNAS” (Verve Therapeutics, Inc., priority 2022, published 2025)

Test system: dsRNA
Experiment: % dsRNA in mRNA samples (sandwich ELISA)
Details: for amount by which dsRNA content of 5231 is lower than that of this analog: 5231 = 0.03%

**Q.** `COC1C(OP([O-])(=S)OCC2OC(n3cnc4c(=O)[nH]c(N)nc43)C(O)C2O)C(COP(=O)(O)OP(=O)(O)OP(=O)(O)OCC2OC(n3c[n+](C)c4c(=O)[nH]c(N)nc43)C(O)C2O)OC1n1cnc2c(N)ncnc21` (stereo not drawn) [1007a, m^7G(ppp) Am(ps)G] was tested. Which “amount by which dsRNA content of 5231 is lower than that of this analog” value did it give?
**A.** The value was ~0.03%.

**Q.** `COC1C(O[P@@]([O-])(=S)OCC2OC(n3cnc4c(=O)[nH]c(N)nc43)C(O)C2O)C(COP(=O)(O)OP(=O)(O)OP(=O)(O)OCC2OC(n3c[n+](C)c4c(=O)[nH]c(N)nc43)C(O)C2O)OC1n1cnc2c(N)ncnc21` (stereo partly drawn) [1007a_D1, m^7G(ppp) Am(ps)G] was tested. Which “amount by which dsRNA content of 5231 is lower than that of this analog” value did it give?
**A.** The value was “about 0.01%”.

**Q.** For `COC1C(OP(=O)(O)OCC2OC(n3cnc4c(=O)[nH]c(N)nc43)C(O)C2O)C(COP(=O)(O)OP(=O)([O-])OP(=O)(O)OCC2OC(n3c[n+](Cc4ccc(Cl)cc4)c4c(=O)[nH]c(N)nc43)C(O)C2O)OC1n1cnc2c(N)ncnc21` (stereo not drawn) [compound 5231, 4-Cl-Bn7G(ppp) Am(p)G], which “% dsRNA” value (mRNA made with the analog, FIG. 13) is on record?
**A.** Its value is 0.03%.
